Laboratory results: PubChem BioAssay AID602196 (INSERM, 2012)

- Assay: 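Knock-downs that protect lung cancer cells from cisplatin or sensitise them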
- Cells: human A549 lung cancer cells
- Knock-down reagent: siRNA pair against human genes
- Timing: 48 h transfection before cisplatin; time from cisplatin to read-out not stated
- Conditions: cisplatin at a dose killing half of control-siRNA cells; exact dose and duration not given
- Detection: 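Cisplatin cell death as a shift from the 50% death seen with control siRNA; siRNAs toxic or growth-blocking alone scored 0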
- Scale: two-siRNA summed score (-2 to +2): higher = both siRNAs protect from cisplatin killing; -2 means both sensitise; mean protection from cisplatin (shift in death) and protection from cisplatin (shift in death), siRNA C and protection from cisplatin (shift in death), siRNA D: higher = protection from cisplatin killing
- Hit rule: 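siRNAs harmful alone (LDH or WST-1) get 0; others get +1 for less and -1 for more cisplatin killing; genes are active when the two siRNAs give the same sign, summing to ±2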
- Meaning of the calls: active = both siRNAs shift cisplatin killing the same way; inactive = no consistent shift, or siRNA harmful alone
This is an unselected part of about 23,000 deposited reagents. Of all reagents, 455 (2%) are marked active. 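Active includes both protection and sensitisation; some change values fall well beyond the stated -50 to +50 range.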 The numbers tell different reagents against one gene apart. The record does not give: the amount of reagent.

| gene symbol | reagent no. | two-siRNA summed score (-2 to +2) | mean protection from cisplatin (shift in death) (%) | protection from cisplatin (shift in death), siRNA C (%) | protection from cisplatin (shift in death), siRNA D (%) | outcome |
| --- | --- | --- | --- | --- | --- | --- |
| LOC389369 | 1 | 0 | 26.1 | 41.1 | 11.1 | inactive |
| MAGI1 | 1 | 0 | -2.1 | 24.3 | -28.5 | inactive |
| ABCA2 (ATP binding cassette subfamily A member 2) | 1 | 0 | 13.4 | 1.8 | 25 | inactive |
| HIGD1A (HIG1 hypoxia inducible domain family member 1A) | 1 | 0 | 2.9 | -6.3 | 12.2 | inactive |
| WWC2-AS2 (WWC2 antisense RNA 2) | 1 | -1 | -10.6 | -18.7 | -2.5 | inactive |
| HECA (HECA ribonucleoprotein granule regulator) | 1 | 1 | 7.3 | 19.6 | -5 | inactive |
| CTSW (cathepsin W) | 1 | 0 | -6.3 | -3.7 | -9 | inactive |
| IGIP (IgA inducing protein) | 1 | 1 | 21.3 | 11 | 31.7 | inactive |
| PRR14L (proline rich 14 like) | 1 | 1 | 8.1 | 2.1 | 14.1 | inactive |
| ATRNL1 (attractin like 1) | 1 | -1 | -19 | 0.4 | -38.4 | inactive |
| TCEAL4 (transcription elongation factor A like 4) | 1 | 0 | 9.8 | 8.2 | 11.3 | inactive |
| CABP1 (calcium binding protein 1) | 1 | 1 | 11.7 | 5.5 | 17.9 | inactive |
| CSAG1 (chondrosarcoma associated gene 1) | 1 | 2 | 19.4 | 18.9 | 19.9 | active |
| BCKDHB (branched chain keto acid dehydrogenase E1 subunit beta) | 1 | 0 | 7.8 | 9.3 | 6.2 | inactive |
| ZSWIM3 (zinc finger SWIM-type containing 3) | 1 | 0 | -2.5 | -7.7 | 2.8 | inactive |
| MTRFR (mitochondrial translation release factor in rescue) | 1 | 0 | 0.5 | -6.5 | 7.5 | inactive |
| RDX (radixin) | 1 | -1 | -10.1 | -28.7 | 8.5 | inactive |
| SLC2A10 | 1 | 0 | 1.1 | -6.1 | 8.4 | inactive |
| ERV3-1 (endogenous retrovirus group 3 member 1, envelope) | 1 | 2 | 9.9 | 10.9 | 9 | active |
| SUMF1 (sulfatase modifying factor 1) | 1 | 1 | 11.3 | 3.6 | 19 | inactive |
| IRGC (immunity related GTPase cinema) | 1 | -1 | -10.9 | -15.7 | -6.1 | inactive |
| SLC35D2 | 1 | 1 | 1.9 | 8.9 | -5.1 | inactive |
| RPS27L (ribosomal protein S27 like) | 1 | 0 | 8.4 | 7.2 | 9.6 | inactive |
| DENND1B (DENN domain containing 1B) | 1 | 0 | -3.1 | -3.8 | -2.4 | inactive |
| DENND1B (DENN domain containing 1B) | 2 | 0 | 5.8 | -0.7 | 12.3 | inactive |
| ZNF702P (zinc finger protein 702, pseudogene) | 1 | 0 | 4.3 | 9.7 | -1.1 | inactive |
| FAM167A (family with sequence similarity 167 member A) | 1 | 0 | -6.6 | 2.4 | -15.7 | inactive |
| LOC389233 | 1 | 0 | 6.8 | 15.2 | -1.5 | inactive |
| LOC402463 | 1 | 0 | 11.7 | 16.9 | 6.6 | inactive |
| RINT1 (RAD50 interactor 1) | 1 | 1 | 3.8 | 12.2 | -4.6 | inactive |
| LOC389668 | 1 | 0 | 9.4 | 10 | 8.7 | inactive |
| CARHSP1 (calcium regulated heat stable protein 1) | 1 | 0 | -8.5 | -7.7 | -9.3 | inactive |
| SLA (Src like adaptor) | 1 | 0 | 21.7 | 24.1 | 19.4 | inactive |
| ZFX (zinc finger protein X-linked) | 1 | 1 | 7.2 | 11.4 | 3 | inactive |
| CAMSAP1 (calmodulin regulated spectrin associated protein 1) | 1 | 0 | 10.3 | 15 | 5.6 | inactive |
| LRP12 (LDL receptor related protein 12) | 1 | 0 | 5.7 | 1.6 | 9.7 | inactive |
| CNP (2',3'-cyclic nucleotide 3' phosphodiesterase) | 1 | 0 | -2.6 | 1.5 | -6.6 | inactive |
| ADO (2-aminoethanethiol dioxygenase) | 1 | -1 | -3.7 | 14.6 | -22 | inactive |
| OR51Q1 (olfactory receptor family 51 subfamily Q member 1) | 1 | 0 | 6.1 | 16.8 | -4.5 | inactive |
| GARIN6 (golgi associated RAB2 interactor family member 6) | 1 | 0 | 1 | 1 | 1.1 | inactive |
| PI16 (peptidase inhibitor 16) | 1 | 0 | 5.1 | 3.2 | 7 | inactive |
| ZNF585B (zinc finger protein 585B) | 1 | 1 | 8.8 | 16.5 | 1.2 | inactive |
| GH1 (growth hormone 1) | 1 | -1 | 3.8 | 31.1 | -23.4 | inactive |
| RHOA (ras homolog family member A) | 1 | 0 | 2.1 | 9 | -4.8 | inactive |
| CYB5R3 (cytochrome b5 reductase 3) | 1 | 0 | 7.7 | 8.8 | 6.5 | inactive |
| CUBN (cubilin) | 1 | -1 | -12.5 | -6.4 | -18.6 | inactive |
| ACTG2 (actin gamma 2, smooth muscle) | 1 | 0 | -7.5 | -1.1 | -13.8 | inactive |
| SETD3 | 1 | 0 | -0.4 | -7 | 6.3 | inactive |
| LINC01115 (long independently transcribed non-coding RNA 1115) | 1 | 0 | 12.2 | 7 | 17.4 | inactive |
| GYPC (glycophorin C (Gerbich blood group)) | 1 | 0 | -10.5 | -9.5 | -11.4 | inactive |
| SPON1 (spondin 1) | 1 | 1 | 17.9 | 26 | 9.7 | inactive |
| DCLRE1C (DNA cross-link repair 1C) | 1 | 0 | 7.3 | 6.1 | 8.6 | inactive |
| LOC440978 | 1 | 1 | 16.4 | 1.4 | 31.4 | inactive |
| VPS13A (vacuolar protein sorting 13 homolog A) | 1 | 0 | 2.1 | 4.9 | -0.6 | inactive |
| SH3BGRL (SH3 domain binding glutamate rich protein like) | 1 | 0 | 6.8 | -12.7 | 26.3 | inactive |
| LINC00475 (long independently transcribed non-coding RNA 475) | 1 | 1 | 13.3 | 16.2 | 10.4 | inactive |
| CTSH (cathepsin H) | 1 | 0 | 0.5 | -30.9 | 31.9 | inactive |
| FAM174B (family with sequence similarity 174 member B) | 1 | 0 | -4.9 | 4.4 | -14.1 | inactive |
| RRM2B | 1 | 0 | 5.8 | 17.1 | -5.5 | inactive |
| PHKA2 (phosphorylase kinase regulatory subunit alpha 2) | 1 | 1 | 11.7 | 5.4 | 18 | inactive |
| MEIOB (meiosis specific with OB-fold) | 1 | 0 | 10.7 | 12.8 | 8.6 | inactive |
| LOC442600 | 1 | 1 | 20 | 28.4 | 11.6 | inactive |
| PIGZ | 1 | 0 | -2.6 | -1.9 | -3.3 | inactive |
| CCDC73 (coiled-coil domain containing 73) | 1 | 0 | 6.2 | 20.4 | -7.9 | inactive |
| GID8 (GID complex subunit 8 homolog) | 1 | 0 | 6.7 | 6.4 | 7.1 | inactive |
| MECP2 (methyl-CpG binding protein 2) | 1 | 0 | 3 | 5 | 0.9 | inactive |
| IRX1 (iroquois homeobox 1) | 1 | 0 | 10.7 | 12.9 | 8.5 | inactive |
| VPS41 (VPS41 subunit of HOPS complex) | 1 | 0 | 10 | 22.8 | -2.9 | inactive |
| MAOB (monoamine oxidase B) | 1 | 0 | -10.9 | -16 | -5.9 | inactive |
| LOC347265 | 1 | 0 | 11.1 | 25.8 | -3.7 | inactive |
| CLEC4C (C-type lectin domain family 4 member C) | 1 | 0 | 10.9 | 15.9 | 6 | inactive |
| RAB20 (RAB20, member RAS oncogene family) | 1 | 0 | -10.1 | -7.9 | -12.3 | inactive |
| RASIP1 (Ras interacting protein 1) | 1 | 1 | 5 | -12.4 | 22.5 | inactive |

Targets above whose gene name starts with A or a:
| gene symbol | reagent no. | two-siRNA summed score (-2 to +2) | mean protection from cisplatin (shift in death) (%) | protection from cisplatin (shift in death), siRNA C (%) | protection from cisplatin (shift in death), siRNA D (%) | outcome |
| --- | --- | --- | --- | --- | --- | --- |
| ABCA2 (ATP binding cassette subfamily A member 2) | 1 | 0 | 13.4 | 1.8 | 25 | inactive |
| ATRNL1 (attractin like 1) | 1 | -1 | -19 | 0.4 | -38.4 | inactive |
| ADO (2-aminoethanethiol dioxygenase) | 1 | -1 | -3.7 | 14.6 | -22 | inactive |
| ACTG2 (actin gamma 2, smooth muscle) | 1 | 0 | -7.5 | -1.1 | -13.8 | inactive |
